From patent US20010047016A1, “Method for treating depression” (priority 2000, published 2001)
For at least one compound, name, drawing or mass did not settle the structure.

Tested on: C57BL/6J mice
Experiment: tail suspension test in C57BL/6J mice
Type: in vivo
Settings: nifedipine 5 mg/kg i.p. alone
Protocol: The tail suspension test is a variant of the “behavioral despair” forced swimming test in which immobility is induced by suspending an animal by the tail (Steru et al., 1985). […] C57BL/6 mice ([…] 21-25g) were housed, ten per cage, in light controlled chambers (12 hr. light/12 hr. dark cycle-lights on at 08.00 hr., off at 20.00 hr.) with free access to food and water. Each animal was tested in a chamber made out of white non-transparent plastics. The C57BL/6J mice are suitable animals for such a study since no enzymes of melatonin biosynthesis have been found in the pineal glands of this strain of mice (Ebihara et al., 1986). Therefore, the observed effects could not be attributed to melatonin. The chamber was 17 cm W×25 cm H×15 cm D with a hook (4 cm) attached to the center of the ceiling. There was no front wall to allow for the observation of the mouse behavior. The mouse was hung on a hook by an adhesive tape placed 15 mm from the extremity of its tail. The animal was positioned with its stomach towards the investigator to assure the observation of the total immobility. The distance between the floor of the chamber and the nose of the animal was 10 cm. Immobility was scored as a sum of the time periods during which the animal hung passively and motionless for at least 2 sec. […] Results were expressed as mean±S.D. (sec.) and statistically treated by ANOVA and Student t-test.

## COC(=O)C1=C(C)NC(C)=C(C(=O)OC)C1c1ccccc1[N+](=O)[O-] [Nifedipine, reference compound]
  duration of immobility: did not affect the duration of immobility
